# Data reported in the supplement of paper PMC11438910.
# The list shows a part of the results. Most of these values are background signal.
# B1: 4-127.2 (protein)
# chain 1: QVQLQESGPGLVKPSETLSLTCAVSGYSVNSGHGWTWIRQSPGKGLEWIGYIGGGSGSSNYNPSLKSRVTISKDTSNNQLSLKLRSLTTADTAMYYCARRVPADRSGNDYWGQGVLVTVSS
# chain 2: QSVLTQPPSVSGDPGQRVTISCTGSSSNIGDYYGYWYQQFPGTAPKLLIFDDNNRPSGISDRFSGSKAGTSASLTITGLQPGDEADYYCGAWDGSLNAHVFGSGTKLTVL
# B2: 3S41.2 (protein)
# chain 1: EVQLVESGGGLVQPGGSLRLSCATSGFTFRNYWMYWFRQAPGKGLDWVSSISDSSSNTFYSDSVKGRFTISRDNAKNTLYLQMNSLRAEDTAVYYCARRPIAAATGVYWYFDLWGPGTPITVSS
# chain 2: QAALTQPPSMSGSPGQSVTISCTGTSSDIGGYNRVSWYQQYPGKAPKLMIYEVSKRPSGVSDRFSGSKSGNTAALTISGLQAADEADYYCSSYAGSYTFVLFGGGTRLTVL
# Key:
# Assay in all cases: fluorescence intensity of antibody binding to polysaccharide-coupled beads; higher = stronger binding
# [1] = biological target: pneumococcal polysaccharide Pn47A
# [2] = biological target: pneumococcal polysaccharide Pn47F
# [3] = biological target: pneumococcal polysaccharide Pn48
# [4] = biological target: pneumococcal polysaccharide Pn5
# [5] = biological target: pneumococcal polysaccharide Pn6A
# [6] = biological target: pneumococcal polysaccharide Pn6B
# [7] = biological target: pneumococcal polysaccharide Pn6C
# [8] = biological target: pneumococcal polysaccharide Pn6D
# [9] = biological target: pneumococcal polysaccharide Pn7A
# [10] = biological target: pneumococcal polysaccharide Pn7B
# [11] = biological target: pneumococcal polysaccharide Pn7C
# [12] = biological target: pneumococcal polysaccharide Pn7F
# [13] = biological target: pneumococcal polysaccharide Pn8
# [14] = biological target: pneumococcal polysaccharide Pn9A
# [15] = biological target: pneumococcal polysaccharide Pn9L
# [16] = biological target: pneumococcal polysaccharide Pn9N
# [17] = biological target: pneumococcal polysaccharide Pn9V
# [18] = biological target: pneumococcal polysaccharide C-Poly-1
# [19] = biological target: pneumococcal polysaccharide C-Poly-2
# [20] = biological target: pneumococcal polysaccharide Pn1
# [21] = biological target: pneumococcal polysaccharide Pn10A
# [22] = antibody concentration 2337.65 ng/mL
# [23] = antibody concentration 12500 ng/mL
# [24] = antibody concentration 0.1 ng/mL
# [25] = antibody concentration 0.534724 ng/mL
# [26] = antibody concentration 2.8593 ng/mL
# [27] = antibody concentration 15.2894 ng/mL
# [28] = antibody concentration 81.7561 ng/mL
# [29] = antibody concentration 437.17 ng/mL
binder,measurement,setting,value
B1,fluorescence intensity,[1]; [22],16.5 MFI
same,fluorescence intensity,[1]; [23],31.5 MFI
same,fluorescence intensity,[2]; [24],11.5 MFI
same,fluorescence intensity,[2]; [25],12 MFI
same,fluorescence intensity,[2]; [26],11.2 MFI
same,fluorescence intensity,[2]; [27],11 MFI
same,fluorescence intensity,[2]; [28],11.5 MFI
same,fluorescence intensity,[2]; [29],13.2 MFI
same,fluorescence intensity,[2]; [22],18.5 MFI
same,fluorescence intensity,[2]; [23],88.2 MFI
same,fluorescence intensity,[3]; [24],20 MFI
same,fluorescence intensity,[3]; [25],20 MFI
same,fluorescence intensity,[3]; [26],20 MFI
same,fluorescence intensity,[3]; [27],19.8 MFI
same,fluorescence intensity,[3]; [28],21.5 MFI
same,fluorescence intensity,[3]; [29],28 MFI
same,fluorescence intensity,[3]; [22],32.2 MFI
same,fluorescence intensity,[3]; [23],44.2 MFI
same,fluorescence intensity,[4]; [24],8.5 MFI
same,fluorescence intensity,[4]; [25],8 MFI
same,fluorescence intensity,[4]; [26],8.5 MFI
same,fluorescence intensity,[4]; [27],8.5 MFI
same,fluorescence intensity,[4]; [28],8.75 MFI
same,fluorescence intensity,[4]; [29],10.8 MFI
same,fluorescence intensity,[4]; [22],18.5 MFI
same,fluorescence intensity,[4]; [23],108 MFI
same,fluorescence intensity,[5]; [24],20.2 MFI
same,fluorescence intensity,[5]; [25],21 MFI
same,fluorescence intensity,[5]; [26],22 MFI
same,fluorescence intensity,[5]; [27],20 MFI
same,fluorescence intensity,[5]; [28],21.8 MFI
same,fluorescence intensity,[5]; [29],24.2 MFI
same,fluorescence intensity,[5]; [22],28.5 MFI
same,fluorescence intensity,[5]; [23],34 MFI
same,fluorescence intensity,[6]; [24],20 MFI
same,fluorescence intensity,[6]; [25],18.8 MFI
same,fluorescence intensity,[6]; [26],17.5 MFI
same,fluorescence intensity,[6]; [27],16.5 MFI
same,fluorescence intensity,[6]; [28],19.5 MFI
same,fluorescence intensity,[6]; [29],21.8 MFI
same,fluorescence intensity,[6]; [22],23 MFI
same,fluorescence intensity,[6]; [23],31.8 MFI
same,fluorescence intensity,[7]; [24],20.8 MFI
same,fluorescence intensity,[7]; [25],32.5 MFI
same,fluorescence intensity,[7]; [26],52.5 MFI
same,fluorescence intensity,[7]; [27],65 MFI
same,fluorescence intensity,[7]; [28],79.8 MFI
same,fluorescence intensity,[7]; [29],69 MFI
same,fluorescence intensity,[7]; [22],76.2 MFI
same,fluorescence intensity,[7]; [23],86.8 MFI
same,fluorescence intensity,[8]; [24],16 MFI
same,fluorescence intensity,[8]; [25],16.5 MFI
same,fluorescence intensity,[8]; [26],15.5 MFI
same,fluorescence intensity,[8]; [27],16 MFI
same,fluorescence intensity,[8]; [28],16 MFI
same,fluorescence intensity,[8]; [29],20 MFI
same,fluorescence intensity,[8]; [22],18.5 MFI
same,fluorescence intensity,[8]; [23],25.8 MFI
same,fluorescence intensity,[9]; [24],19 MFI
same,fluorescence intensity,[9]; [25],18.8 MFI
same,fluorescence intensity,[9]; [26],19.5 MFI
same,fluorescence intensity,[9]; [27],18.2 MFI
same,fluorescence intensity,[9]; [28],20.5 MFI
same,fluorescence intensity,[9]; [29],22.5 MFI
same,fluorescence intensity,[9]; [22],57.5 MFI
same,fluorescence intensity,[9]; [23],484 MFI
same,fluorescence intensity,[10]; [24],15.5 MFI
same,fluorescence intensity,[10]; [25],16.2 MFI
same,fluorescence intensity,[10]; [26],16.5 MFI
same,fluorescence intensity,[10]; [27],16.5 MFI
same,fluorescence intensity,[10]; [28],15.5 MFI
same,fluorescence intensity,[10]; [29],16.5 MFI
same,fluorescence intensity,[10]; [22],22 MFI
same,fluorescence intensity,[10]; [23],66.8 MFI
same,fluorescence intensity,[11]; [24],16 MFI
same,fluorescence intensity,[11]; [25],14 MFI
same,fluorescence intensity,[11]; [26],14.2 MFI
same,fluorescence intensity,[11]; [27],15.8 MFI
same,fluorescence intensity,[11]; [28],14.2 MFI
same,fluorescence intensity,[11]; [29],15 MFI
same,fluorescence intensity,[11]; [22],19.5 MFI
same,fluorescence intensity,[11]; [23],64 MFI
same,fluorescence intensity,[12]; [24],14.5 MFI
same,fluorescence intensity,[12]; [25],14.8 MFI
same,fluorescence intensity,[12]; [26],13.5 MFI
same,fluorescence intensity,[12]; [27],13.5 MFI
same,fluorescence intensity,[12]; [28],16 MFI
same,fluorescence intensity,[12]; [29],19.5 MFI
same,fluorescence intensity,[12]; [22],44.5 MFI
same,fluorescence intensity,[12]; [23],294 MFI
same,fluorescence intensity,[13]; [24],21 MFI
same,fluorescence intensity,[13]; [25],19.8 MFI
same,fluorescence intensity,[13]; [26],21.5 MFI
same,fluorescence intensity,[13]; [27],20 MFI
same,fluorescence intensity,[13]; [28],21.2 MFI
same,fluorescence intensity,[13]; [29],28.5 MFI
same,fluorescence intensity,[13]; [22],31.5 MFI
same,fluorescence intensity,[13]; [23],41 MFI
same,fluorescence intensity,[14]; [24],19.8 MFI
same,fluorescence intensity,[14]; [25],18.2 MFI
same,fluorescence intensity,[14]; [26],18.8 MFI
same,fluorescence intensity,[14]; [27],19 MFI
same,fluorescence intensity,[14]; [28],18.8 MFI
same,fluorescence intensity,[14]; [29],19 MFI
same,fluorescence intensity,[14]; [22],26 MFI
same,fluorescence intensity,[14]; [23],75 MFI
same,fluorescence intensity,[15]; [24],17 MFI
same,fluorescence intensity,[15]; [25],16.5 MFI
same,fluorescence intensity,[15]; [26],17.5 MFI
same,fluorescence intensity,[15]; [27],17 MFI
same,fluorescence intensity,[15]; [28],17.2 MFI
same,fluorescence intensity,[15]; [29],16 MFI
same,fluorescence intensity,[15]; [22],19.5 MFI
same,fluorescence intensity,[15]; [23],41 MFI
same,fluorescence intensity,[16]; [24],14.5 MFI
same,fluorescence intensity,[16]; [25],14.5 MFI
same,fluorescence intensity,[16]; [26],16 MFI
same,fluorescence intensity,[16]; [27],16 MFI
same,fluorescence intensity,[16]; [28],16.5 MFI
same,fluorescence intensity,[16]; [29],15.5 MFI
same,fluorescence intensity,[16]; [22],20.5 MFI
same,fluorescence intensity,[16]; [23],60.5 MFI
same,fluorescence intensity,[17]; [24],14 MFI
same,fluorescence intensity,[17]; [25],13.8 MFI
same,fluorescence intensity,[17]; [26],15 MFI
same,fluorescence intensity,[17]; [27],13.5 MFI
same,fluorescence intensity,[17]; [28],14.5 MFI
same,fluorescence intensity,[17]; [29],18 MFI
same,fluorescence intensity,[17]; [22],18.5 MFI
same,fluorescence intensity,[17]; [23],22.2 MFI
B2,fluorescence intensity,[18]; [24],26.5 MFI
same,fluorescence intensity,[18]; [25],28 MFI
same,fluorescence intensity,[18]; [26],28.2 MFI
same,fluorescence intensity,[18]; [27],26 MFI
same,fluorescence intensity,[18]; [28],27.5 MFI
same,fluorescence intensity,[18]; [29],30.5 MFI
same,fluorescence intensity,[18]; [22],94 MFI
same,fluorescence intensity,[18]; [23],728 MFI
same,fluorescence intensity,[19]; [24],19.5 MFI
same,fluorescence intensity,[19]; [25],22 MFI
same,fluorescence intensity,[19]; [26],22.5 MFI
same,fluorescence intensity,[19]; [27],21 MFI
same,fluorescence intensity,[19]; [28],21.5 MFI
same,fluorescence intensity,[19]; [29],25.5 MFI
same,fluorescence intensity,[19]; [22],77.8 MFI
same,fluorescence intensity,[19]; [23],654 MFI
same,fluorescence intensity,[20]; [24],14.2 MFI
same,fluorescence intensity,[20]; [25],15 MFI
same,fluorescence intensity,[20]; [26],13 MFI
same,fluorescence intensity,[20]; [27],14.5 MFI
same,fluorescence intensity,[20]; [28],13.5 MFI
same,fluorescence intensity,[20]; [29],16.5 MFI
same,fluorescence intensity,[20]; [22],25.5 MFI
same,fluorescence intensity,[20]; [23],84.5 MFI
same,fluorescence intensity,[21]; [24],27 MFI
same,fluorescence intensity,[21]; [25],28 MFI
same,fluorescence intensity,[21]; [26],27.5 MFI
same,fluorescence intensity,[21]; [27],26.5 MFI
same,fluorescence intensity,[21]; [28],26.5 MFI
same,fluorescence intensity,[21]; [29],27.5 MFI

# An excerpt of these results, bar-delimited.
binder | measurement | setting | value
B1 | fluorescence intensity | [3]; [29] | 28 MFI
same | fluorescence intensity | [3]; [22] | 32.2 MFI

# Random excerpt: seven records from the list.
binder,measurement,setting,value
B1,fluorescence intensity,[6]; [24],20 MFI
same,fluorescence intensity,[2]; [22],18.5 MFI
same,fluorescence intensity,[11]; [23],64 MFI
same,fluorescence intensity,[12]; [26],13.5 MFI
same,fluorescence intensity,[7]; [22],76.2 MFI
same,fluorescence intensity,[4]; [25],8 MFI
same,fluorescence intensity,[17]; [23],22.2 MFI

# Some of the entries so far, as tab-separated lines.
binder	measurement	setting	value
B1	fluorescence intensity	[4]; [24]	8.5 MFI
same	fluorescence intensity	[4]; [25]	8 MFI
same	fluorescence intensity	[4]; [26]	8.5 MFI
